Experimental data: PubChem BioAssay AID743454 (Peter MacCallum Cancer Centre, 2014)

- Assay: 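Knock-downs lowering viability or raising caspase 3/7 activity in vorinostat-treated resistant cells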 (primary screen)
- Cells: human HCT116-VR colon cancer cells, selected for vorinostat resistance
- Reagents: siRNA pool against human genes, 40 nM siRNA pool
- Time to read-out: vorinostat for 24 h, read-out about 72 h after transfection
- Challenge: vorinostat at 2.5 µM final
- Detection: 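Cell viability by CellTiter-Fluor and caspase 3/7 activity by luminescence, each scaled to mock wells per plate, duplicates averaged, then robust z-scored over all plates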
- Direction: viability robust z-score: higher = more viable cells than screen typical; caspase robust z-score: higher = more caspase 3/7 activity than screen typical
- Hit rule: 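a knock-down is a hit when classed RV1 or RV2 for lowered viability, or CA1 or CA2 for caspase activation; those lethal without drug were dropped; hits were retested singly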
The deposit covers about 18,000 reagents; below is a random part of them. 450 of them (2.5%) were called active. 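Single biological run; no consistent viability z cut-off exists, so the class columns, not z-scores, define the calls.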 Entries without a mark were called inactive. The numbers tell different reagents against one gene apart.

target | reagent no. | viability hit class | caspase hit class | viability robust z-score | caspase robust z-score
SEPTIN4 | 1 | no change | no change | -0.57 | 3.25
SEPTIN4 | 2 | no change | no change | 0.86 | 0
TMPO | 1 | no change | no change | -0.31 | 0.27
NEXMIF | 1 | no change | no change | 0.2 | -1.19
BPIFB2 | 1 | no change | no change | 0.82 | 0.86
ASPM | 1 | no change | no change | 0.16 | 2.66
CRYGD | 1 | no change | no change | 1.52 | -0.36
FDCSP | 1 | no change | no change | -0.39 | 0.83
CAMTA2 | 1 | no change | no change | -0.34 | -0.75
FSTL3 | 1 | no change | no change | -0.42 | 2.82
HTR3D | 1 | no change | no change | 0.58 | -0.37
HBG2 | 1 | no change | no change | 1.48 | 0.56
GJA10 | 1 | no change | no change | 0.18 | -0.89
SLC9C2 | 1 | no change | no change | 1.36 | 0.62
HCK | 1 | no change | no change | 0.92 | 1.42
H3C7 | 1 | no change | no change | 0.16 | 1.28
VAT1 | 1 | no change | no change | 0.32 | -1.15
AKR1B1 | 1 | no change | no change | -0.84 | -1.01
COL4A6 | 1 | no change | no change | 1.22 | -0.26
GPR149 | 1 | no change | no change | 0.3 | 0.98
GPR15 | 1 | no change | no change | -0.84 | 1.73
OCLM (retired record) | 1 | no change | no change | 0.45 | -0.3
DIDO1 | 1 | no change | no change | 1.12 | 0.42
TOMM22 | 1 | no change | no change | 0.55 | -0.04
ZNF839 | 1 | no change | no change | -0.92 | -1.27
CXCL11 | 1 | no change | no change | -0.01 | -0.24
CD2BP2 | 1 | no change | no change | -0.81 | 0.24
TTLL8 | 1 | no change | no change | -2.02 | 3.65
TRIM10 | 1 | no change | no change | 0.74 | 0.43
SPANXB1 | 1 | no change | no change | 0.42 | 1.99
SPANXB1 | 2 | no change | no change | -1.66 | -0.6
TEKT1 | 1 | no change | no change | 0.22 | -0.34
ADCY4 | 1 | no change | no change | 0.29 | -1.12
TBPL2 | 1 | no change | no change | -0.66 | -0.66
EXOC3L4 | 1 | no change | no change | 0.58 | -0.26
KCNC2 | 1 | no change | no change | 1.27 | -0.86
TOE1 | 1 | no change | no change | 1.12 | -0.56
HDHD3 | 1 | no change | no change | -0.7 | 0.78
ZSWIM1 | 1 | no change | no change | -0.25 | 0.15
CACNA1F | 1 | no change | no change | -1.16 | 2.67
VEGFD | 1 | no change | no change | 0.24 | -0.4
COQ9 | 1 | no change | no change | 0.59 | 0.97
LYPD8 | 1 | no change | no change | 0.84 | 0.17
DYNLT4 | 1 | no change | no change | 0.8 | 0.12
ASB1 | 1 | no change | no change | -0.55 | 0.76
RPAIN | 1 | no change | no change | -0.44 | -1.02
TNFRSF11A | 1 | no change | no change | -1.21 | 0.96
NPR3 | 1 | no change | no change | 1.35 | -0.34
NPR3 | 2 | no change | no change | 0.34 | -0.66
PPIC | 1 | no change | no change | -0.18 | -0.5
ZNF678 | 1 | no change | no change | -0.6 | 5.03
TRPM6 | 1 | no change | no change | 0.9 | -1.15
ITGA6 | 1 | no change | no change | 0.52 | -0.68
CA3 | 1 | no change | no change | -0.54 | 2.36
TCN2 | 1 | no change | no change | 0.03 | -1.19
SLC2A1 | 1 | no change | no change | 0.4 | -0.48
IL4R | 1 | no change | no change | 0.27 | 0.7

Reformatted: 5 of the entries above
target	reagent no.	viability hit class	caspase hit class	viability robust z-score	caspase robust z-score
TBPL2	1	no change	no change	-0.66	-0.66
EXOC3L4	1	no change	no change	0.58	-0.26
KCNC2	1	no change	no change	1.27	-0.86
TOE1	1	no change	no change	1.12	-0.56
HDHD3	1	no change	no change	-0.7	0.78
